These are yes or no findings as the source states them, for the method shown. Binding seen in cells or lysates may run through a third protein. Here binding means that the protein was enriched with, or labelled near, the bait; the list need not be complete.

The chains behind the UniProt entries cited, without tags or fusion partners. Where a name states a change or a piece, a line headed by the entry shows the natural chain unless it says otherwise.
UniProt A8B341: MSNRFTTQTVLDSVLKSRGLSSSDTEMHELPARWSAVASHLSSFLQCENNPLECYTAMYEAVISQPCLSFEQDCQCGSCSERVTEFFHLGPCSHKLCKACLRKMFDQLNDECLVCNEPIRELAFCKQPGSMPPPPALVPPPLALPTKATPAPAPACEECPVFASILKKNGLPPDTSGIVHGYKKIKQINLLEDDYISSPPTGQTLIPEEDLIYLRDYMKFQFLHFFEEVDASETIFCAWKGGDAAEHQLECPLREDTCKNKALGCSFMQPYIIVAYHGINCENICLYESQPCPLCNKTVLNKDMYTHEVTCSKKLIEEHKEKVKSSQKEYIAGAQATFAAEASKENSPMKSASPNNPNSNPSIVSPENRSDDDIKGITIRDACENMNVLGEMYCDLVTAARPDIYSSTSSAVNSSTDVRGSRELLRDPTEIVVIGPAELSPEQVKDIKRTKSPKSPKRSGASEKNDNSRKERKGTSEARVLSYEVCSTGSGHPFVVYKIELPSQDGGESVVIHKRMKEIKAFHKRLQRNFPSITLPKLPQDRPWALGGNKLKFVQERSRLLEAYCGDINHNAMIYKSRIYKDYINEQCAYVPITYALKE
UniProt A8BII4: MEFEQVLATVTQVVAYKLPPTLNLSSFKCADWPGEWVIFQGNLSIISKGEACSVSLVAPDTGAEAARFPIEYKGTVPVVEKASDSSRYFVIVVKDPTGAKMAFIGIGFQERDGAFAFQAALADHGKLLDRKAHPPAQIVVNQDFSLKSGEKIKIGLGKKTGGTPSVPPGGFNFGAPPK
UniProt D3KH98: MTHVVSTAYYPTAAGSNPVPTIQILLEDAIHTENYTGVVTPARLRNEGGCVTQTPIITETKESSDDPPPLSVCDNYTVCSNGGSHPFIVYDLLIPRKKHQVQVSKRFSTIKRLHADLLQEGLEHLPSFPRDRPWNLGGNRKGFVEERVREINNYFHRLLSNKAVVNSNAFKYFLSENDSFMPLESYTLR
UniProt A8B343: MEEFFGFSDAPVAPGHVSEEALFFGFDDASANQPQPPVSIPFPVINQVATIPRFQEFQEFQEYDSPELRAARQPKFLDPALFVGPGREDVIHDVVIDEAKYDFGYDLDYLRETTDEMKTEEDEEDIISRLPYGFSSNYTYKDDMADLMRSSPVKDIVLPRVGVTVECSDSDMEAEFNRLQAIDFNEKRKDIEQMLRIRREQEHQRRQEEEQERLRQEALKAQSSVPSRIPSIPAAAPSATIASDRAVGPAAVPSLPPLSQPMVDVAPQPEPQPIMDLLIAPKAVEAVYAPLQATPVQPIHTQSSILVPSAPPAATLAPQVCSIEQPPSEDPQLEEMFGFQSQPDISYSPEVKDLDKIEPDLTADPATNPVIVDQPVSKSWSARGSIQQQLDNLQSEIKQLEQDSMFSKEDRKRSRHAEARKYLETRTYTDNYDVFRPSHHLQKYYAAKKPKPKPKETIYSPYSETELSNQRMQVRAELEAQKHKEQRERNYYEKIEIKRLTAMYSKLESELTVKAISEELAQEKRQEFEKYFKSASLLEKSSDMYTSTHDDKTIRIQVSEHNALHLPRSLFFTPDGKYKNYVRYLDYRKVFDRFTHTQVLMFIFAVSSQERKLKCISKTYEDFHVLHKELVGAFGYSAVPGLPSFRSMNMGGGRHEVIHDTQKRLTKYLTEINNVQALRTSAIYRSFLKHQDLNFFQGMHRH

Common to all, as to assay: affinity purification with mass spectrometry; antibody-based affinity co-IP with limited cross-linking from transgenic G. lamblia trophozoites expressing the epitope-tagged full-length bait; protein input 0.8 mg/ml total protein; gel lanes analysed by MS; hits filtered against a control co-IP from non-transgenic wild-type parasites (Scaffold4; high stringency 95_2_95, low stringency 95_2_50, FDR 0%)

Test [1] concerns the target GlPXD2 (GL50803_16595), epitope-tagged full-length reporter (Giardia lamblia) (UniProt A8B344).
Test [2] deals with GlPXD3 (GL50803_16596), epitope-tagged full-length reporter (Giardia lamblia) (UniProt A8B341).
In test [3] the target is GlFYVE (GL50803_16653), epitope-tagged full-length reporter (Giardia lamblia) (UniProt A8BDZ8).
For test [4], the target named is GlNECAP1 (GL50803_17195), epitope-tagged full-length reporter (Giardia lamblia) (UniProt A8BII4).
Test [5] deals with GlPXD6 (GL50803_24488), epitope-tagged full-length reporter (Giardia lamblia) (UniProt D3KH98).
Test [6] concerns the target GlPXD1 (GL50803_7723), epitope-tagged full-length reporter (Giardia lamblia) (UniProt A8B343).
Test [7] deals with GlPXD4 (GL50803_42357), epitope-tagged full-length reporter (Giardia lamblia) (UniProt A8B322).

B1: G. lamblia dynamin-like protein GlDRP (protein, UniProt E2RU04 1-732)
chain: MSQIDKLIPIVNSLQDVFSAIGQDKTNIDLPQITVVGSQSAGKSSVLEAVCGRDVLPRSAGICTRRPLILQLIPTKPGQFVKDEKGKTYEEWGEFLHTKDKKFVHYQEICKEIVAETDRVTGGTLNVSPLPIRLKLFSPTVVPLTLVDLPGLVKNALPGQPADIDVQIKKCVYEYIQKPNAVILAVSAANADLATSDALQAAINCDPKGDRSVGVLTKIDIVDKGTEATVVSILRNEVHYFKLGWIAVMNRSQKDIDAQKTIAKHLHDEEEFFRTHDYYKPLAAQSGAKYLARRLNQVLINHIQIVLPDLKMKVHLQLDKYSRELASYGQHLEGRAEMERALLGLISSYEKEYKAILDGSSAGASKNELYGGARISYIFQSVLPKMFDTISIQEILNGEDVRTLIRNSSGTRSSLFLSESAFELLVQKVVRRLEGPCKHCLQLVKAELISIAKSIPTPEMKKYRRLCNELVNTCIKLINDLTMPTGKFLQDLIHSELCYINTLHPDFVASQEFKGHIDGQRNMANLDVSNQGFGESNFGGPGGPGMGGFPPGGPGGPGGPGGPGGPPGGPGMNRGPGGPPGAPGGPGGPMNRGPGGPGGPGGPGGPGPQQFNESVPEKIKAQGPLSEAEKLGVDLIPRLMSAYYRVIRKKIEDSVPKACIAFLVKASMNQLQEVLVRNLYSGDKIEDLLCEDPSIKEKRVACRELVDVMQRASNILDKIGNIRNVEDLAKKD
With B1, the binding entry was “binds” in test [1]; “binds weakly” in test [2]; “binds” in test [3]; “binds” in test [4]; “binds” in test [5]; “binds weakly” in test [6]. The binding result in test [7] is “binds”.

The values are drawn from paper PMC7058353.
